The target of the assay is Staphylococcal Nuclease And Tudor Domain Containing 1 (human (endogenous in PCa cell lines)) (UniProt Q7KZF4). Nature of the assay: co-IP; about 10^7 PCa cells lysed in IP buffer (50 mM Tris-HCl pH 7.4, 150 mM NaCl, 2 mM EDTA, 1% NP-40); anti-SND1 or anti-C-Myb antibody, Protein A/G magnetic beads; IgG as negative control; western blot; cells with or without overexpression of circ_0004087.

Chains of the proteins cited; added tags and fusions are not shown.
UniProt Q7KZF4: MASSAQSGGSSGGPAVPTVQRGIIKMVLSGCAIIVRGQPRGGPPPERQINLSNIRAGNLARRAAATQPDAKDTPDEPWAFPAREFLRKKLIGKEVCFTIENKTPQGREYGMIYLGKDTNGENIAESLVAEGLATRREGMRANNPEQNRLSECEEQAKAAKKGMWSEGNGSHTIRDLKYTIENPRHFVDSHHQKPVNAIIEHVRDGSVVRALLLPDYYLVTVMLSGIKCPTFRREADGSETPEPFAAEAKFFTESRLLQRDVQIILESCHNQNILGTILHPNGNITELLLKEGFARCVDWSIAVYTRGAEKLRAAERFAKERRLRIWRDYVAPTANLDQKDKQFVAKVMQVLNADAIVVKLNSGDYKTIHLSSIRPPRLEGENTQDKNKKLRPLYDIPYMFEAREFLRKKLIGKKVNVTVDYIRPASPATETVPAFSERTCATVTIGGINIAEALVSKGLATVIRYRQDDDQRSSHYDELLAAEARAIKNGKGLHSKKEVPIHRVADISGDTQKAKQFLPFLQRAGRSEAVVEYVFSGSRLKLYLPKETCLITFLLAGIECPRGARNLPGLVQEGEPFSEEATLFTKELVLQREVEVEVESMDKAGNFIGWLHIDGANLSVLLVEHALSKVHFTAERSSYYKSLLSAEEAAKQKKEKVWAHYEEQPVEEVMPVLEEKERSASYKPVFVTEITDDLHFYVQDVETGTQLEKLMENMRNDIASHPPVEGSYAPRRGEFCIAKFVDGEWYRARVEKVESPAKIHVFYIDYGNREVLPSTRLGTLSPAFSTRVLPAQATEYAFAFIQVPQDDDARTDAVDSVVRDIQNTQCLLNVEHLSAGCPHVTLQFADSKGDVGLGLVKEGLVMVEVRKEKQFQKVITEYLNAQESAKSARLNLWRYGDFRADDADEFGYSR
UniProt P10242: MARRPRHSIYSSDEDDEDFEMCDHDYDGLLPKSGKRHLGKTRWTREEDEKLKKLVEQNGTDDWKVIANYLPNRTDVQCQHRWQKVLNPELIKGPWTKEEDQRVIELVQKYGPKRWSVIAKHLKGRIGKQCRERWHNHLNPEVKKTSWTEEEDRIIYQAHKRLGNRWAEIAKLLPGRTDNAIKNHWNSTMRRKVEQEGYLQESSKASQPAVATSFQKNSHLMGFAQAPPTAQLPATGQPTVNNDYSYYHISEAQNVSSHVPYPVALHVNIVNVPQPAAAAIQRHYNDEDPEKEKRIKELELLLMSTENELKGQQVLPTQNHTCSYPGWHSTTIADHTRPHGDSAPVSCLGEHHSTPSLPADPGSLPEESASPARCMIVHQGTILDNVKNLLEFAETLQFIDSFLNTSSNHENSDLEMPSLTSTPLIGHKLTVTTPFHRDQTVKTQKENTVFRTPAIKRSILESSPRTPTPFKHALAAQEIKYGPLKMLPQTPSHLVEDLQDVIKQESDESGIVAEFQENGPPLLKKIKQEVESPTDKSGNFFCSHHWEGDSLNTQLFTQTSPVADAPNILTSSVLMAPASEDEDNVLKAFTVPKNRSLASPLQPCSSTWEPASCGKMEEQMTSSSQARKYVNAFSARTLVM

The values that follow come from publication PMC9166435.

These are yes or no findings as the source states them, for the method shown. In cells and extracts the contact can be indirect. Some binding calls cover weakened binding; strength is not graded here.

In the case of MYB (from UniProt P10242 1-640), the binding result was “binds”.
